PubChem BioAssay AID1259424 | University of Nebraska Medical Center | 2018
Screen: 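Seek colon cancer survival genes behaving like KSR1, using a six-gene signature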 (primary screen). System: human HCT116 colon cancer cells. Reagent: siRNA pool against human genes, 50 nM. Measured: 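Log2 levels of six mRNAs (branched-DNA multiplex), adjusted by two reference genes and the non-targeting median, then scored against the average KSR1 knockdown pattern as Pearson r and euclidean distance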. Scale: mean correlation with KSR1 profile: higher = expression change more like KSR1 knockdown.
Here is an unselected part of about 14,000 deposited reagents. 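Higher correlation or smaller distance means closer resemblance to KSR1 loss; control wells, including KSR1 knockdowns, recur on many plates.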 Further read-outs or replicates are left out here. Not stated in the record: the time to read-out.

Gene | mean correlation with KSR1 profile
BTAF1 | 0.587
NFATC2IP | 0.0254
PGBD5 | 0.441
SMURF2 | -0.527
UBL4A | 0.444
ZDHHC9 | 0.552
GRIN2A | 0.473
PXN | 0.102
RNASET2 | 0.56
CNR2 | 0.57
PHF21A | -0.524
NLRC4 | 0.435

Targets listed so far whose gene name begins with N or n (2):
Gene | mean correlation with KSR1 profile
NFATC2IP | 0.0254
NLRC4 | 0.435

Additional entries follow.
Gene | mean correlation with KSR1 profile
MED14 | -0.374
FASTK | 0.494
NPBWR2 | 0.519
EPOR | 0.0379
GABRA2 | -0.631
ADGRG4 | 0.572
CHTF18 | -0.281
KIAA0825 | -0.797
